# Screening data, single-dose tests

Protein sequences, listed by entry. Tags and fused reporters are not part of them. Residues count along the entry.
UniProt I6X8D2, whole entry: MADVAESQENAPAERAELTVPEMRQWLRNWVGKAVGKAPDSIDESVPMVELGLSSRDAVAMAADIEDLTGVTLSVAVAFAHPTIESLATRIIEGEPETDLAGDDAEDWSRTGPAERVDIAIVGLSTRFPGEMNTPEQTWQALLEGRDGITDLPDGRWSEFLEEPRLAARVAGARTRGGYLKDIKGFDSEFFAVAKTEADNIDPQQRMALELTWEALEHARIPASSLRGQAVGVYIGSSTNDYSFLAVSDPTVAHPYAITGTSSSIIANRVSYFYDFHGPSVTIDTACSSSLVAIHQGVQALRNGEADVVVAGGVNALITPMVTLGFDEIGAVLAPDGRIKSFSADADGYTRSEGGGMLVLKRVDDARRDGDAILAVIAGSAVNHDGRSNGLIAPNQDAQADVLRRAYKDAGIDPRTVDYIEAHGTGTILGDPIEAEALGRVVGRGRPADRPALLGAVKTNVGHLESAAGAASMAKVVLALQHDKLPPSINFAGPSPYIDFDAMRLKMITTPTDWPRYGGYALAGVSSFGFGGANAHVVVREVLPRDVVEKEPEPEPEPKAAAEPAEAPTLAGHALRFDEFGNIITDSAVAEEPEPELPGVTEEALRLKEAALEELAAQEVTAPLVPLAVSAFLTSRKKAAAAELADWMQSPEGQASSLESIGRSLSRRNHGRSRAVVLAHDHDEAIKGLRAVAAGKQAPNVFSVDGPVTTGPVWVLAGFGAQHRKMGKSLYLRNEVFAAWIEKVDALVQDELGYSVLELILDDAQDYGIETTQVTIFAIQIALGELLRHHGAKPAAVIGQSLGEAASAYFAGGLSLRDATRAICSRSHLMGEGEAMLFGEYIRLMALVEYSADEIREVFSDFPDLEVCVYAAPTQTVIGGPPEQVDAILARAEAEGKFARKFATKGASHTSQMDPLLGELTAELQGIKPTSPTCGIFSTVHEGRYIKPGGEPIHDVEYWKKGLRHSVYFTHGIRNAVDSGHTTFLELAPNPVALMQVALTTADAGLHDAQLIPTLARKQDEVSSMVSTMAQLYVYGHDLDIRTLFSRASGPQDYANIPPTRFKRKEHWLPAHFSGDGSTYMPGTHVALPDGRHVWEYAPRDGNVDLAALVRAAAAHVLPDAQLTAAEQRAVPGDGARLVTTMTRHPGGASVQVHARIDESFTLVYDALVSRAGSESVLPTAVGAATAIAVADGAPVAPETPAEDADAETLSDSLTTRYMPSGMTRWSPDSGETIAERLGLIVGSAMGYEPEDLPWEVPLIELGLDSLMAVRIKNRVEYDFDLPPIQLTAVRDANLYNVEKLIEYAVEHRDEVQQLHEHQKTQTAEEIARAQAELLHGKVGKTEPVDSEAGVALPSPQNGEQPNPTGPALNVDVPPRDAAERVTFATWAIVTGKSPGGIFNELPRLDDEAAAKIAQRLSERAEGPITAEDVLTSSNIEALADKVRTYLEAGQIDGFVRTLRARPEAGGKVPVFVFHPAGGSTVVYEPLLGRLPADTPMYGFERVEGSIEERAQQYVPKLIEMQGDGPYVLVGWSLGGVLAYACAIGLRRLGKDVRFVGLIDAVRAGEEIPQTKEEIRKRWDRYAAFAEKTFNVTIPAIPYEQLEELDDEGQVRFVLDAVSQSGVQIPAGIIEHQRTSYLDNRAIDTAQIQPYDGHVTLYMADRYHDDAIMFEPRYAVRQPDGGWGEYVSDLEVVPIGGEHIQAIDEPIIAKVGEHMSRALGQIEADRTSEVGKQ
UniProt Q4DA54, 1-478: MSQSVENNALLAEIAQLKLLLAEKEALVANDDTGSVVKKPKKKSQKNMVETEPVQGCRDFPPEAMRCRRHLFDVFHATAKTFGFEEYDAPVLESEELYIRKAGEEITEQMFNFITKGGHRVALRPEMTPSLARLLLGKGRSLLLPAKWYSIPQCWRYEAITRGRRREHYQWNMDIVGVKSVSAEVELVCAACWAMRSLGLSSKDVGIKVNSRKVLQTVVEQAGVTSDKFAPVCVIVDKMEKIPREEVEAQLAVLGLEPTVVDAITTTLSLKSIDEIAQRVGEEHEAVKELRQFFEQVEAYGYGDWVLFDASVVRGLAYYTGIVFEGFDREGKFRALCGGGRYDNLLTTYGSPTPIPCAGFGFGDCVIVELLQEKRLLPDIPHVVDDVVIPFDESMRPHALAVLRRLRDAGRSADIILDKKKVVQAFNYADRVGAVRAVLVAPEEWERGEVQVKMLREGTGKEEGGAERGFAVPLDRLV
UniProt A4I591, 1-473: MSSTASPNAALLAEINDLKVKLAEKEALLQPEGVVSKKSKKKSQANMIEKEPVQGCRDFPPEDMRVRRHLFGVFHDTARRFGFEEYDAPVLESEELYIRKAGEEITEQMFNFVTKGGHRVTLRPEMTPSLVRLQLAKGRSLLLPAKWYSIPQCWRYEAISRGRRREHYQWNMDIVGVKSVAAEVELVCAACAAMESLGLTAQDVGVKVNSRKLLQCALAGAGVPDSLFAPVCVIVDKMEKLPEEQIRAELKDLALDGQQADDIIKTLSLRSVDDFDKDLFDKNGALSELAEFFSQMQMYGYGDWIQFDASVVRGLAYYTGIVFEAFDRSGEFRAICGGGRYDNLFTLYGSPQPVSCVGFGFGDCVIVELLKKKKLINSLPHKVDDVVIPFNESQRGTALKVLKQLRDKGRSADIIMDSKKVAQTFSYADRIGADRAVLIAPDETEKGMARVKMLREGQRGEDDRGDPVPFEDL

Source: ChEMBL document CHEMBL3988442, “University of Dundee, Small-Polar-MMV Screening Library” (2021).

The filed quantity is “Percent Effect” (%). The record does not define 0% and 100%; most values in the screen are far below 50% and negative numbers occur (in some assays of this library far below -100). This is an unselected part of the compounds tested. A dash means the value is not listed here; it may have been measured.

A: 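Enzyme assay of the thioesterase domain of polyketide synthase 13; the read-out is not stated. Target: Polyketide synthase Pks13, Mycobacterium tuberculosis (UniProt I6X8D2). Concentration: 30 µM. The record gives no direction; the compounds picked for IC50 retests had high values, so higher reads as stronger inhibition. Of about 67,000 compounds tested this way, about 300 (0.46%) reached 50% or more in at least one test.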
B: 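Histidine-tRNA ligase, Trypanosoma cruzi CL Brener (UniProt Q4DA54). Enzyme assay of histidyl-tRNA synthetase; the read-out is not stated. Concentration: 30 µM. The record gives no direction; compounds that gave an IC50 in retests scored well above the rest, so higher reads as stronger inhibition. Size under these conditions: about 69,000 compounds, about 31 of them at 50% or above in at least one test.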
C: 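Histidine-tRNA ligase, Leishmania infantum (UniProt A4I591). Enzyme assay of histidyl-tRNA synthetase; the read-out is not stated. Compounds at 30 µM. Higher reads as stronger inhibition (inferred: compounds with an IC50 in retests scored well above the rest). The assay is labelled LdHisRS but filed under L. infantum. Size under these conditions: about 69,000 compounds, about 410 of them at 50% or above in at least one test.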

| # | Compound | A | B | C |
|---|---|---|---|---|
| 1 | `Cc1nccn1-c1ccc(=O)n(CCNC(=O)c2ccccn2)n1` | -11.07 | 5 | 21.74 |
| 2 | `Cc1cccc(CN2CCc3[nH]nc(C(=O)N4CCNC(=O)C4)c3C2)n1` | -19.64 | 6.329 | 17.24 |
| 3 | `CCCS(=O)(=O)N1C[C@H]2C[C@H](C(=O)N(C)C)[C@@H](C1)O2` | -9.86 | 3.941 | 8.824 |
| 4 | `C1CCc2nnc(CNc3nc(C4CC4)nc4c3CCNCC4)n2CC1` | -16.56 | 3.483 | 5.594 |
| 5 | `CC(NC(=O)COc1ccccc1C(=O)O)c1ccc(F)cc1` (stereo not shown) | -18.7 | 8.466 | 15.15 |
| 6 | `NC(=O)c1nc(-c2ccc(Cl)cc2Cl)oc1N` | 19.36 | 0 | 9.89 |
| 7 | `COc1ccc(CCCC(=O)N2C[C@H](C3CC3)[C@@H](N(C)C)C2)cc1` | - | 5.6 | 1.639 |
| 8 | `Cc1ocnc1CNC(=O)Nc1ccc(N2CCOC(C)C2)cc1` (stereo not shown) | -5.929 | 5.941 | 4.762 |
| 9 | `CN(C)C(=O)N1C[C@@H]2CCCO[C@@H]2[C@H](N(C)Cc2ccco2)C1` | -16.19 | 0 | 11.43 |
| 10 | `Cc1ccc(Nc2cc(N3CCN(S(C)(=O)=O)CC3)nc(C)n2)cc1` | -8.179 | 4.878 | 13.16 |
| 11 | `COc1cccc(OCC(=O)N(C)c2cccnc2N(C)C)c1` | 1.062 | 6 | 10.2 |
| 12 | `Cc1nn(CC(O)CN2CCC(C)CC2)c(=O)c(C#N)c1C` (stereo not shown) | -6.022 | 2.762 | 8.333 |
| 13 | `O=C(O)C(c1ccc2c(c1)OCO2)N1CCC(O)(c2cccnc2)CC1` (stereo not shown) | -12.42 | 3.061 | 5.714 |
| 14 | `COCCN1CC2(CCN(Cc3ccco3)CC2)c2ccccc21` | -4.103 | 3.797 | 13.79 |
| 15 | `COCCOC[C@]1(CNC(=O)c2ccc(OC)cc2)C[C@@H](O)[C@@H](O)C1` | 13.82 | 7.921 | 22.22 |
| 16 | `O=C(NCc1cccnc1N1CCCCC1)c1ccc2cc[nH]c2c1` | -17.8 | 10.45 | 20.48 |
| 17 | `Cc1nc(CN2CCCC(CCc3ccccc3F)C2)c[nH]1` (stereo not shown) | -23.34 | 11.22 | 2.778 |
| 18 | `COC(=O)c1cccc(C(=O)N2CCN(c3cc(C)ccc3C)CC2)n1` | -7.495 | 8.543 | 17.98 |
| 19 | `CCN(C)c1ncnc2c1CCN(C(=O)c1ccsc1)CC2` | -0.5634 | 3.96 | 12.33 |
| 20 | `CCc1noc(C(C)N(C)CC(=O)Nc2ccc(Cl)c(C(F)(F)F)c2)n1` (stereo not shown) | 25.52 | 3.067 | 9.877 |
| 21 | `COc1cccc2c(=O)n(Cc3cc(C4CC4)[nH]n3)cnc12` | -7.922 | 3.483 | 1.399 |
| 22 | `CN(C)Cc1nc(C(C)(C)NC(=O)c2ccnn2C)no1` | 9.006 | 0.578 | 6.667 |
| 23 | `COc1ccc(CN(Cc2cncn2C)CC2CCCO2)c(OC)c1` (stereo not shown) | -101.5 | 3.784 | 22.22 |
| 24 | `Clc1cnc(NCc2ccccc2N2CCOCC2)nc1` | 13.18 | 3.659 | 20.48 |
| 25 | `COCCN(C(=O)c1ccccn1)c1nc2c(s1)CCc1c-2cnn1C` | 12.92 | 4.255 | 101 |
| 26 | `O=C(COc1coc(CN2CCCCC2)cc1=O)NCc1ccccc1` | -22.66 | 1.087 | 17.14 |
| 27 | `CC(=O)NC(CC(=O)Nc1ccc(C)cn1)c1ccccc1` (stereo not shown) | -6.261 | 5.917 | 23.21 |
| 28 | `O=C1N(CC2CC2)C(c2cncs2)NC12CCCC2` (stereo not shown) | -2.444 | 0 | 10.62 |
| 29 | `CCC1=NC2(CCC(C(=O)Nc3ccc(C)nc3)CC2)C(=O)N1C` (stereo not shown) | -9.578 | 4.444 | 13.21 |
| 30 | `N#CCCN(C(=O)CN1CCCC1c1ccsc1)c1ccccc1F` (stereo not shown) | -13.84 | 1.916 | 15.38 |
| 31 | `CNC(=O)Cc1noc(Cc2cccc(Cl)c2)n1` | -17.86 | 2.809 | 12.82 |
| 32 | `O=C(NCCn1cccn1)c1ccn(-c2cccc(F)c2)n1` | -2.334 | 3.468 | 9.649 |
| 33 | `Cc1noc(C)c1CC(=O)Nc1ccn(CC(N)=O)n1` | -2.344 | 7.921 | 16.67 |
| 34 | `CCn1cc(NC(=O)NCC(O)CN2CCCCC2)cn1` (stereo not shown) | -12.42 | -2.642 | -2.667 |
| 35 | `COCCC(=O)N1CCn2cc(CN3CCN(C)CC3)nc2C1` | -12.34 | 9.453 | 16.67 |
| 36 | `CCN(CC(C)C#N)C(=O)CNc1ccc(C(N)=O)c(C)c1` (stereo not shown) | -3.084 | -2.02 | -1.064 |
| 37 | `COCC(=O)N1CCC2(CC1)CC(OC)c1ccc(F)cc12` (stereo not shown) | 8.546 | 4.908 | -3.419 |
| 38 | `CCN(CC)c1ccc2ccc(C(=O)N(CCOC)CCOC)cn12` | -1.776 | 23.31 | 22.22 |
| 39 | `CC(C)c1noc(CN2CCN(C(=O)OC(C)(C)C)C(C)C2)n1` (stereo not shown) | 8.731 | -2.762 | 9.326 |
| 40 | `CCC(CN1CCCCC1)NC(=O)C1(c2cccc(F)c2)CC1` (stereo not shown) | 16.45 | -8.333 | 5.634 |
| 41 | `N#Cc1ccc(OC2CCN(C(=O)c3ccc4c(c3)OCO4)CC2)nc1` | 6.886 | 0.8264 | 11.54 |
| 42 | `CCc1nc(CCNC(=O)NC2CCN(C(C)C)C2)sc1C` (stereo not shown) | -20.03 | 1.087 | 18.18 |
| 43 | `Cc1cc(CCC(=O)N2CCCC2)nc(C2CCCN2)n1` (stereo not shown) | 41.35 | 5.556 | 16.49 |
| 44 | `Cc1cnc(CCNC(=O)C2CCN(S(=O)(=O)c3ccc(F)cc3)C2)s1` (stereo not shown) | -12.92 | 3.788 | 2.899 |
| 45 | `Cn1ccnc1C(=O)NC[C@@H]1OC[C@H]2CN(S(C)(=O)=O)CC[C@H]21` | -7.046 | 4.124 | 10 |
| 46 | `c1cc(CNCc2ccnc(N3CCCC3)c2)c2c(c1)OCCO2` | -6.39 | 7.407 | 3.03 |
| 47 | `O=c1cc(Cn2cncn2)nc2n1CCCN(Cc1ccoc1)C2` | -9.473 | 2.4 | 9.735 |
| 48 | `Cc1nn(CN(CC(C)C)C2CC2)c(=O)c2noc(C)c12` | -39.22 | 7.792 | 16.67 |
| 49 | `O=C1N(Cc2ccccn2)C[C@H]2CN(C3CCOCC3)CCN12` | -28.69 | 0.4975 | -24.32 |
| 50 | `Cc1cccn2c(=O)cc(CSCC(=O)Nc3nnc(C(C)C)s3)nc12` | 98.21 | 7 | 2.74 |
| 51 | `c1ccc(CN2CCC3(CC2)CC(Oc2cccnc2)C3)nc1` | -0.3639 | 2.062 | 8 |
| 52 | `CN1CC2(CCCN(Cc3nnc(-c4ccccc4)o3)CC2)OC1=O` (stereo not shown) | -7.323 | 8.772 | 19.35 |
| 53 | `Cc1ccccc1C(=O)NC[C@@H]1CCN(C(=O)c2cscn2)C[C@H]1O` | -1.356 | 17.58 | 17.78 |
| 54 | `COc1cccc(-c2n[nH]cc2CNC2CCN(C(C)C)CC2)c1` | -11.88 | 5.263 | 16.07 |
| 55 | `CCC(NC(=O)CCCN1CCCCC1)c1cn2cccnc2n1` (stereo not shown) | -16.98 | 4.255 | 4.286 |
| 56 | `CCc1cccc2cc(CN)c(=O)[nH]c12` | -5.492 | 8.046 | 14.39 |
| 57 | `CC(=O)Cn1ncc(N2CCOCC2)cc1=O` | -26.99 | 9.375 | 18.75 |
| 58 | `CN1N=C(C(=O)NCCc2ccc(OC3CCCC3)cc2)CCC1=O` | -8.415 | 6.077 | 3.109 |
| 59 | `CN1CCN(C)C(CNc2c(C#N)cnc3ccc(Cl)cc23)C1` (stereo not shown) | -18.37 | 4.972 | 5.181 |
| 60 | `CNC(=O)C1CCC(NC(=O)N(C)Cc2c(C)noc2C)CC1` (stereo not shown) | -10.9 | -0.7634 | 4.255 |
| 61 | `COCCN1CCCN(C(=O)c2oc(C)nc2C)CC1` | -32.49 | 1.293 | 3.797 |

Repeated from the top, 7 entries:

{"compound": "Cc1nccn1-c1ccc(=O)n(CCNC(=O)c2ccccn2)n1", "A": -11.07, "B": 5, "C": 21.74}
{"compound": "Cc1cccc(CN2CCc3[nH]nc(C(=O)N4CCNC(=O)C4)c3C2)n1", "A": -19.64, "B": 6.329, "C": 17.24}
{"compound": "CCCS(=O)(=O)N1C[C@H]2C[C@H](C(=O)N(C)C)[C@@H](C1)O2", "A": -9.86, "B": 3.941, "C": 8.824}
{"compound": "C1CCc2nnc(CNc3nc(C4CC4)nc4c3CCNCC4)n2CC1", "A": -16.56, "B": 3.483, "C": 5.594}
{"compound": "CC(NC(=O)COc1ccccc1C(=O)O)c1ccc(F)cc1", "stereo": "stereo not shown", "A": -18.7, "B": 8.466, "C": 15.15}
{"compound": "NC(=O)c1nc(-c2ccc(Cl)cc2Cl)oc1N", "A": 19.36, "B": 0, "C": 9.89}
{"compound": "COc1ccc(CCCC(=O)N2C[C@H](C3CC3)[C@@H](N(C)C)C2)cc1", "B": 5.6, "C": 1.639}